Results are given in words; binding and its absence hold for the method and conditions named. In cells and extracts the contact can be indirect. Binding calls can cover weak binding; strength is not graded here.
T1: SRSF3 (endogenous) (human (endogenous in HeLa)) (UniProt P84103)
T1 sequence: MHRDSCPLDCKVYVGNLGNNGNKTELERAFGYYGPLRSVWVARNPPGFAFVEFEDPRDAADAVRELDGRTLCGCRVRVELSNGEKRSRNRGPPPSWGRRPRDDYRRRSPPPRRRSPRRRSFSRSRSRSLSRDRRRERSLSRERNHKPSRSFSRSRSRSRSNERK

Amino acid sequences for entries named in this document (tags omitted). A change or cut given only in a name is not applied to a line headed by its entry.
UniProt Q9UBU9: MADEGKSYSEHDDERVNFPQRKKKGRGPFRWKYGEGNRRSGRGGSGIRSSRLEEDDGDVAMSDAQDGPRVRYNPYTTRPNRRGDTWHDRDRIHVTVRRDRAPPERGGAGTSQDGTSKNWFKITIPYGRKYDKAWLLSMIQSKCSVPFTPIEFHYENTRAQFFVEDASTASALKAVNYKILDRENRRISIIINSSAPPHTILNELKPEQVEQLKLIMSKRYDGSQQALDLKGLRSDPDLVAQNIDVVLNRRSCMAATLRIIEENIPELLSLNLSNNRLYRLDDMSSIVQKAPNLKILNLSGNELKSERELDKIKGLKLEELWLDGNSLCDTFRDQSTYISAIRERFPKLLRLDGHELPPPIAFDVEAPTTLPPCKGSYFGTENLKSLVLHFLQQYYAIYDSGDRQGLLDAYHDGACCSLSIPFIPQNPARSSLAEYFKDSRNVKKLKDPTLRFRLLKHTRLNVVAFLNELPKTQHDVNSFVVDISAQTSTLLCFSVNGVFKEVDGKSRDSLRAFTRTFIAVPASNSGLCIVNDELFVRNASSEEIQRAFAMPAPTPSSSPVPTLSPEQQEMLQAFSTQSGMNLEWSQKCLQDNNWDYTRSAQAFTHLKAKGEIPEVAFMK


Legend:
[1] = molecular target: T1, SRSF3 (endogenous) (human (endogenous in HeLa)); assay: co-IP; endogenous IP: lysate of untreated HeLa cells with primary antibody (5 ug/IP) or rabbit IgG control, 4 °C, 2 h, then Dynabeads Protein A; washed, with and without RNase A treatment; western blot
[2] = molecular target: NXF1 (endogenous) (human (endogenous in HeLa)) (UniProt Q9UBU9); assay: as above

Row | binding [1] | binding [2] | Molecule
1 | binds | – | NXF1 (endogenous) (from UniProt Q9UBU9-1)
2 | – | binds | SRSF3 (endogenous) (protein, UniProt P84103-1 1-164) MHRDSCPLDCKVYVGNLGNNGNKTELERAFGYYGPLRSVWVARNPPGFAFVEFEDPRDAADAVRELDGRTLCGCRVRVELSNGEKRSRNRGPPPSWGRRPRDDYRRRSPPPRRRSPRRRSFSRSRSRSLSRDRRRERSLSRERNHKPSRSFSRSRSRSRSNERK
